Measurements published in PMC10439204.
Results are given in words; binding and its absence hold for the method and conditions named. Binding seen in cells or lysates may run through a third protein.

By UniProt entry, the sequences of proteins in these tests, tags left out.
UniProt Q6GQQ9: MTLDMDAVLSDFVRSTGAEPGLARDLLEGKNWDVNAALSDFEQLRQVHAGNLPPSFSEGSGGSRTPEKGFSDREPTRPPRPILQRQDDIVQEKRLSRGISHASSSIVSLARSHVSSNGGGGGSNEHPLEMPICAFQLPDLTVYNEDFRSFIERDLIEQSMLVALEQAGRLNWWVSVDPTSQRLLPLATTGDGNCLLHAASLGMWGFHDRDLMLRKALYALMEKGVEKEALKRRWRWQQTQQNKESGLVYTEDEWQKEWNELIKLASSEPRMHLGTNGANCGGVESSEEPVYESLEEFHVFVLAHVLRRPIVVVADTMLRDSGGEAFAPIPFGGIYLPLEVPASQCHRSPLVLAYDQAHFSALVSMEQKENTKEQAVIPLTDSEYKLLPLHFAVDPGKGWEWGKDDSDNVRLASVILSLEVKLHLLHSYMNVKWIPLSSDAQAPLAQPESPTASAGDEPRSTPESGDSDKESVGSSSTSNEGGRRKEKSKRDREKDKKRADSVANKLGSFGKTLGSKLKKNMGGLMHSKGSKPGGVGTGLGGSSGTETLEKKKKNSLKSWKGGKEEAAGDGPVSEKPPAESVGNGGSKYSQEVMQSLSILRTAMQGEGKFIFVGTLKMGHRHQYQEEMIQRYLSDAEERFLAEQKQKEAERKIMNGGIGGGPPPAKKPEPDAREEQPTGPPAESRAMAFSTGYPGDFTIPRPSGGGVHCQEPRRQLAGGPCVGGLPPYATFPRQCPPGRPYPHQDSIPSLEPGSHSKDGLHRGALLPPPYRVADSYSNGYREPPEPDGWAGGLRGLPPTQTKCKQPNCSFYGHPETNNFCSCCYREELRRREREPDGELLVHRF
UniProt Q14457: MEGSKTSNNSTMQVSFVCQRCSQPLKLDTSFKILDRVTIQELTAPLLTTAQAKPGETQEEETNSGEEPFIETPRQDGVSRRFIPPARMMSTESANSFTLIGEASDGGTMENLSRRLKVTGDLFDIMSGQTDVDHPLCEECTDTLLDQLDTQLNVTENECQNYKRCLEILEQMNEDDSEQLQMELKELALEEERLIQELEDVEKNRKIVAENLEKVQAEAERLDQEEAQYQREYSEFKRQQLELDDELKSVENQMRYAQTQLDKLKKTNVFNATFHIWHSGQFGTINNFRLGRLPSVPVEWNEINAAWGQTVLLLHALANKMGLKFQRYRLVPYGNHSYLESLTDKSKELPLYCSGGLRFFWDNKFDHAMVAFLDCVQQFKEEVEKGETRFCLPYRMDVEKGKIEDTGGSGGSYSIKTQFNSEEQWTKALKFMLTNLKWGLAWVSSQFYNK

Target: Cellular zinc finger anti-NF-kappa-B protein (Cezanne) (human (endogenous in PC9 and Hek 293T)) (UniProt Q6GQQ9)
Assay: co-IP; PC9 (Fig. 3B) and Hek 293T (Fig. 3C) cell lysates; protein G Plus-Agarose with primary antibody at 4 °C overnight, western blot; precipitating antibody not stated

## Beclin-1 (from UniProt Q14457 1-450)
  binding: no binding
